## Assay results

The results are deposited in PubChem (AID1159506; NCATS, 2015).

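Genome-wide siRNA knockdown in TC32 Ewing sarcoma cells, comparing luciferase light from an NR0B1-promoter reporter with a CMV-promoter reporter 48 hours after transfection. Each siRNA was applied at 20 nM. A z-score of the log NR0B1-over-CMV signal, less the median of siRNAs with the same seed; more negative means a stronger specific loss of the NR0B1 reporter.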

This is part of the screen; most of the strongest results are not listed here. Sequences are the guide (antisense) strand, without overhang.

strand | gene | seed-corrected z-score
UCACUGUUCCUAGCUCUCC | SNIP1 | 0.6213
UGAGGAAUUCCUGGUAUGC | APBA1 | 0.1743
UCCUCGUUUACUUCGUUGC | HMG20A | 0.5315
UAUGUCUUCAUCUCGCCUA | LOC727874 | -1.466
UUUGUUGAGGGUGUACAGC | MTG1 | 0.2183
AAUCUUAGCAGGAAGGUGC | STAT3 | 0.2652
UUCUUUGUAAUCAUGAACU | RABL3 | 0.4456
UAGAGCUUGAGGAAAAGGA | MGAT3 | 0.4932
AAAGUUACAGGAGACCUCU | MAMDC4 | -0.5197
AUAGGAGUCAGUACGGUGU | OR1L1 | -0.03683
UGUUAUGUAGGUUCAUUGC | WNT16 | 0.03616
UUCCGUUAAUAAAAGCUCG | LRP1B | -0.04125
UGUGCUCUAAGGUCUCAAC | CSF1R | -0.728
UCAUUCGCAAUCAUUUUUG | APOL4 | 0.4562
UCUCGGACUUUGCUAGUGC | MET | -0.642
UUCCUUGCGAGCAGCAGUU | MLNR | -0.3777
AUAGUUAUCAUCCUUUAUG | KIAA0391 | 0.2121
UUCUUUACUAGAGGUAUCC | SRSF11 | -0.4122
UCUGCUGACACGUUGAGCC | IL17RC | -1.575
UUCUAGUCCCUAUUAGUUC | SLC16A13 | 0.008151
AAUGCUCUUAGAUCGCUGC | ERICH6 | -0.177
UGACAUGAUACUUCAUCCC | ZNF512 | 0.2348
ACAGUCUUCACACUUGGGC | SIRT2 | 0.5886
AAUUUGAACCAGAAGUUGC | LRRC8A | 0.1013
AAACUUGUUGCAAUAGUAG | TOX | 0.3217
AACUUGAUUCUCUUUAGCC | ANKRD20A12P | -0.3253
UCCCGGAAAACUCACUCCC | PAX5 | -0.5204
UGGACAGUGAGUUUCGGCC | LZTS2 | 0.4867
UAUCAUACCAGUUUGUAAA | AMY1A | 0.2888
ACAUCAAUCACCGUGAUCC | FAM78A | 0.1533
AACUCUAAAAGAUCACUAG | CSGALNACT2 | -0.2107
AUCGGAAUUGGAGCUACUC | MYT1 | 0.4781
UUUCGGGUGACAAAGACGA | CCL5 | -0.5659
UAGUGUAGUCAAAACAUCC | ACADSB | 0.3439
UCUAUUGUGAAUUGUAGGC | CD180 | -0.367
UUCCCGAACACUAUUCUGG | CTPS1 | -0.5168
AAAGGGUGGAGUUUCUUGC | RGS3 | -1.916
UUAGAUUUCCAGUCUGCUC | DDX24 | -0.0138
UGUGAUCAAUGCAUGAAUC | UBE2Z | 1.181
UCCGUAGCAAGAGUAGGGC | NKX2-6 | -0.1906
UUAUGGAUGAAAACUAUCU | HMGB1 | 1.334
UUAGCAUUUACUGAUGCAG | AGFG1 | -0.2458
UUUACUCCAAUUGCUACAG | WRN | -0.8311
UCCACAAUGAUUACCUUCC | C3orf58 | 0.3421
UCACCGUAUGCAUUGUUCC | CXorf66 | -0.295
UCAAUGUGCACUAGGACGG | H6PD | -0.07581
UUCGAAUAAAGGGUCUUUG | BTBD10 | 0.4816
UUUAUUCGAAAUCUAAACC | LINC00461 | -0.329
AACGGUAGAGGUCCUUUCC | PRDM1 | -0.1231
UCUGUUGACAUAUUUGUGC | FAM26F | 0.3593
UCAAAAUACACCUUGACGG | PPIB | 0.2139
UGAGUUUUCAUGUUAACAA | GTPBP8 | 0.2982
UGUUCCUCCUUUACAAUGC | EIF1B | -0.9228
UGGUUUUCCCUCAAGACUC | CDO1 | -0.13
UGUUCAAUUACCUUAUUCC | MAPK10 | 0.03805
UUAAGACAACUGUUAACUC | CHIC2 | -1.382
AAACUGAAGAUCACUGUUC | C1orf220 | -0.2713
ACACGCAAUAUUAAUGUCU | ACBD7 | 0.5745
AAAGUAACUAUGGUAAACC | TXNRD1 | -0.1207
UUAGAUUCUUCCACGUAUU | LETM1 | -0.1568
AAUCUAAUCUGCUAUAUGG | LIPI | -0.2526
UAAAGACUGAGUCAGGCUC | AQP9 | -0.1473
UAAGCUGUAAGAGAGUCGA | ASB9P1 | 0.8713
AAACUUUUUACAUCUCAGC | SCGB1D1 | 1.144
UCCUGUAUUGGACCUCCAG | C16orf97 | -0.6406
UCAUUAGAAAUGAAGCUUC | DEFB131 | 1.701

7 of the entries, repeated:

{"strand": "UUUGUUGAGGGUGUACAGC", "gene": "MTG1", "seed-corrected z-score": "0.2183"}
{"strand": "UAUCAUACCAGUUUGUAAA", "gene": "AMY1A", "seed-corrected z-score": "0.2888"}
{"strand": "UGAGUUUUCAUGUUAACAA", "gene": "GTPBP8", "seed-corrected z-score": "0.2982"}
{"strand": "UUUACUCCAAUUGCUACAG", "gene": "WRN", "seed-corrected z-score": "-0.8311"}
{"strand": "AUAGUUAUCAUCCUUUAUG", "gene": "KIAA0391", "seed-corrected z-score": "0.2121"}
{"strand": "AAAGUUACAGGAGACCUCU", "gene": "MAMDC4", "seed-corrected z-score": "-0.5197"}
{"strand": "UCAUUCGCAAUCAUUUUUG", "gene": "APOL4", "seed-corrected z-score": "0.4562"}